# Results as given in patent US20090226428A1 (CEPHALON AUSTRALIA, published 2009).
# Chains of the proteins cited; added tags and fusions are not shown. Residues count along the entry.
# UniProt P01375, residues 77-233: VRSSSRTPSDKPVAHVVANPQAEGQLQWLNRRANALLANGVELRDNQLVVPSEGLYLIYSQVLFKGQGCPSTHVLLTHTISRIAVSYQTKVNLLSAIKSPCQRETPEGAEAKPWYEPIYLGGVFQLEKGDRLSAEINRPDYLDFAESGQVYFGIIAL
# Substitutions are numbered along the chain they refer to. No constants are given. Whether binding was seen depends on the method and setting. Some results given as binding are weak or reduced against the parent protein; the word gives no strength.
# B1: Owl Monkey 1 CDR2-grafted dAb (CDR=YAATKLQS) (protein)
# VL: DIQMTQSPSSLSASVGDRVTITCRASQSIDSYLHWYQQKPGKAPKLLIYAATKLQSGVPSRFSGSGSGTDFTLTISSLQPEDFATYYCQQVVWRPFTFGQGTKVEIKR
# B2: Owl Monkey 2 CDR2-grafted dAb (CDR=YEASSLQS) (protein)
# VL: B1 VL with A50E, T52S, K53S
# B3: Marmoset 1 CDR2-grafted dAb (CDR=YEASKLQS) (protein)
# VL: B1 VL with A50E, T52S
# Biological target: T1, human TNF-α (human, UniProt P01375 77-233)
# Assay: receptor binding assay (plate ELISA): dAb mixed with TNF, binding to captured TNF receptor 1-Fc
row,binding,Binder
1,binds,B1
2,binds,B2
3,binds,B3

# Biological target: T1, human TNF-α
# Assay: receptor binding assay (ELISA): dAb mixed with TNF (10 ng/ml), binding of TNF to captured TNF receptor 1 Fc fusion protein detected; blocked partner TNF receptor 1-Fc
# Experimental: dAbs diversified in the 14 selected positions were tested for the ability to inhibit the binding of TNF to recombinant TNF receptor 1 (p55). Briefly, Maxisorp plates were incubated overnight with […] anti-human Fc mouse monoclonal antibody (Zymed, San Francisco, USA). The wells were washed with phosphate buffered saline (PBS) containing 0.05% Tween-20 and then blocked with 1% BSA in PBS before being incubated with 100 ng/ml TNF receptor 1 Fc fusion protein (R&D Systems, Minneapolis, USA). Each dAb was mixed with TNF which was added to the washed wells at a final concentration of 10 ng/ml. TNF binding was detected with 0.2 mg/ml biotinylated anti-TNF antibody (HyCult biotechnology, Uben, Netherlands) followed by 1 in 500 dilution of horse radish peroxidase labelled streptavidin (Amersham Biosciences, UK) and then incubation with TMB substrate (KPL, Gaithersburg, USA). The reaction was stopped by the addition of HCl and the absorbance was read at 450 nm. Anti-TNF dAb activity lead to a decrease in TNF binding and therefore a decrease in absorbance compared with the TNF only control (FIG. 5).
row,binding,Binder
1,binds,B1
2,binds,B2
3,binds,B3
